# From PMC10200693
# Protein sequences, listed by entry. Tags and fused reporters are not part of them.
# UniProt Q9Y6J0: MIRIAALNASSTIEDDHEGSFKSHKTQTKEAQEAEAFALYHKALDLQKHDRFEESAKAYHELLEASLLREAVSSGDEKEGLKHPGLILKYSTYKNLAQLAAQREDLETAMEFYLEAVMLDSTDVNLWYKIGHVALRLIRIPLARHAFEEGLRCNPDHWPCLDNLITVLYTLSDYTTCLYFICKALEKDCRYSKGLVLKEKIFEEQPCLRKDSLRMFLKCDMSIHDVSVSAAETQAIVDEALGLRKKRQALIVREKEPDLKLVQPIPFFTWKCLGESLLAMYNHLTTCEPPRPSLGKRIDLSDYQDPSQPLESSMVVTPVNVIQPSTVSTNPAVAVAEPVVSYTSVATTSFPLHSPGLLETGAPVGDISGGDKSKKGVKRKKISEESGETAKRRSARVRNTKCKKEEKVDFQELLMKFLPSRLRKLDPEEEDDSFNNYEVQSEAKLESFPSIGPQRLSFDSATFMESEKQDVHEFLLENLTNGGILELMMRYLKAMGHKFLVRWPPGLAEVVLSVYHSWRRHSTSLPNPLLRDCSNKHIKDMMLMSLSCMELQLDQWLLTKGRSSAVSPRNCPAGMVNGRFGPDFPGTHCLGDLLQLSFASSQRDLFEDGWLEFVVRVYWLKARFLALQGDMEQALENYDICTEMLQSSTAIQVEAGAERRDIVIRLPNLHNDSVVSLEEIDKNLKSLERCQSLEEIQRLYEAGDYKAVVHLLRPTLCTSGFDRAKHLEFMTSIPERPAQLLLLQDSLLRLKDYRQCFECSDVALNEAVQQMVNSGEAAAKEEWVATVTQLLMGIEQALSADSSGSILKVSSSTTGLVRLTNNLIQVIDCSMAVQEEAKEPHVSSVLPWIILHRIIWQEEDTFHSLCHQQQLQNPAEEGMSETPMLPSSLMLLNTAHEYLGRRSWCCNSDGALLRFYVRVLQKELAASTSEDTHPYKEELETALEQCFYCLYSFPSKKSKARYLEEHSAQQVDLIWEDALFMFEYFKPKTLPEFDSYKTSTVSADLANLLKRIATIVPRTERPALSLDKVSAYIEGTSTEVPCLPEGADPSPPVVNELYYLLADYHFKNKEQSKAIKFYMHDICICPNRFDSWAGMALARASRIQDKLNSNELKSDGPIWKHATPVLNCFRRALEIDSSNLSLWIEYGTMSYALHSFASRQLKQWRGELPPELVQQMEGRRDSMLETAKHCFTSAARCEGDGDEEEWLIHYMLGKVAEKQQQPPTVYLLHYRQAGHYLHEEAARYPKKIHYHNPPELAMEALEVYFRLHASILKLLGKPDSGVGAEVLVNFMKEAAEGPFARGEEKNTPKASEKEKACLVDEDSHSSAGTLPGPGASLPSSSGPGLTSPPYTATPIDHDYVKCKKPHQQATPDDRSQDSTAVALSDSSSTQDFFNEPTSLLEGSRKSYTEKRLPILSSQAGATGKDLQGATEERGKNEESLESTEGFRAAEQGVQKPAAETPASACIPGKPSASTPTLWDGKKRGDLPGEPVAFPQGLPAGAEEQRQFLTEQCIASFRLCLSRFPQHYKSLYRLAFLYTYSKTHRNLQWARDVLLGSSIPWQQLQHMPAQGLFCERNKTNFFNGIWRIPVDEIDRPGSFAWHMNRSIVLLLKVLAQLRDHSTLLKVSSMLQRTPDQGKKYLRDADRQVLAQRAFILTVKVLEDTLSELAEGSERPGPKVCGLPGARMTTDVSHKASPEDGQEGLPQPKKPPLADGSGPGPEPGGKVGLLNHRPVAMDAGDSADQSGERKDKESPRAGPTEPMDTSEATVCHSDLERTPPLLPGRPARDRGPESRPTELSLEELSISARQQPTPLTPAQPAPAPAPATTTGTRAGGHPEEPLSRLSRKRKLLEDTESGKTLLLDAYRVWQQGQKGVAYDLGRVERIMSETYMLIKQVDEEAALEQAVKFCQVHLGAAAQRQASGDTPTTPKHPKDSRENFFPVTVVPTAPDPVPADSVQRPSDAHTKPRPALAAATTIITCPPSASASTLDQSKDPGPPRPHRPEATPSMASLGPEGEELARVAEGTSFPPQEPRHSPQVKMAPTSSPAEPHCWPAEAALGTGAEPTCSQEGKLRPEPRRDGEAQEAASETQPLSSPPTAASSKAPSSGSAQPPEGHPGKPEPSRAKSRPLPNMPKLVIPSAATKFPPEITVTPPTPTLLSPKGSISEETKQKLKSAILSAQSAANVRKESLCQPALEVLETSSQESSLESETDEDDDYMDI
# UniProt P35579: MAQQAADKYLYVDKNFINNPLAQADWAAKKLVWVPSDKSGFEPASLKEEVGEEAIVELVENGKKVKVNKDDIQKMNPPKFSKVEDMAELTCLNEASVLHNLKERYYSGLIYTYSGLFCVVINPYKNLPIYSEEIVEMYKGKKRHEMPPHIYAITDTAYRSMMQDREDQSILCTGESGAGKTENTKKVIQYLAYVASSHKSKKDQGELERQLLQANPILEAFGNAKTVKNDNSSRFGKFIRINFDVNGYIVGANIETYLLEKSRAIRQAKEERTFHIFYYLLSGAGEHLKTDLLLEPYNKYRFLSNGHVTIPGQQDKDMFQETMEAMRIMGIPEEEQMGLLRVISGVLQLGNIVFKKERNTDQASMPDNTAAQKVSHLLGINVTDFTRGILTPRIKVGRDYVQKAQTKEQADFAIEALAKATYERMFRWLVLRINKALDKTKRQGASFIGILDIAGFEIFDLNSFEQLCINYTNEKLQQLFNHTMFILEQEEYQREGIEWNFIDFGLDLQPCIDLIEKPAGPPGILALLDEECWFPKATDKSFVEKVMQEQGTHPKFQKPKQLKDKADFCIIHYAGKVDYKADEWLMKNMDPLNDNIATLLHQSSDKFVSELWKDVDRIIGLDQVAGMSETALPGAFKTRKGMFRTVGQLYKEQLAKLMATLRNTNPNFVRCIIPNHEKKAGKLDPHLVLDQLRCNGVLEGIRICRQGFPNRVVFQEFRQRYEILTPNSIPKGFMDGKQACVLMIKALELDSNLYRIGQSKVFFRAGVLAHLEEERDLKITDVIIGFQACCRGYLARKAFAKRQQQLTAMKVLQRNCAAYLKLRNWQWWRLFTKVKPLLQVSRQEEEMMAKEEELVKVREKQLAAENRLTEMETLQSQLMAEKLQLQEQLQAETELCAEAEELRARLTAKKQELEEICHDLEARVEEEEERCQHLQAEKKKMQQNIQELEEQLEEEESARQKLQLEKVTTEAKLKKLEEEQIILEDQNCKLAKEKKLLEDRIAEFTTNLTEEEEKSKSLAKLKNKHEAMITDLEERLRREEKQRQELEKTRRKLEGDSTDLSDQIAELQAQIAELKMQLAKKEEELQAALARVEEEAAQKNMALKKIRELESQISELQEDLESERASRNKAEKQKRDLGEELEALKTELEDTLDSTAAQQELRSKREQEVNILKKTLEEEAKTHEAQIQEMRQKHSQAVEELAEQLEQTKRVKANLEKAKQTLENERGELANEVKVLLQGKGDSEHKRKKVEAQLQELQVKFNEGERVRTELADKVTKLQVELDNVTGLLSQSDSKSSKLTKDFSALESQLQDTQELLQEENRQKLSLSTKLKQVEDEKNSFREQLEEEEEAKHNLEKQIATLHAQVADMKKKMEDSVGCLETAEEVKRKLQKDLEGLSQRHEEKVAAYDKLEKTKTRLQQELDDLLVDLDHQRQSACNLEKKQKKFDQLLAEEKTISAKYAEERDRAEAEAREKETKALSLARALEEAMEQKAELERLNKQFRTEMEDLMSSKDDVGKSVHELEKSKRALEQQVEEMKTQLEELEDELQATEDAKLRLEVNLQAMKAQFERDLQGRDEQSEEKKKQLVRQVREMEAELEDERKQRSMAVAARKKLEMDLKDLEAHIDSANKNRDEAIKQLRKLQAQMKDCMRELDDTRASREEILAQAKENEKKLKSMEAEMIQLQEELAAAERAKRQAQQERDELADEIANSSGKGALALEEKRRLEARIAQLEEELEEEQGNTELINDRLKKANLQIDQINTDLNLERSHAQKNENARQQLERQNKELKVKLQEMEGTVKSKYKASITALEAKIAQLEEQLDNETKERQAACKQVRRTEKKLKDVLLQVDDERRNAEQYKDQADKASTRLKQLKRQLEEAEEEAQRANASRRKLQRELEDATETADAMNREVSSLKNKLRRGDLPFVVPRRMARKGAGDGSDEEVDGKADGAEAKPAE
# UniProt O75396: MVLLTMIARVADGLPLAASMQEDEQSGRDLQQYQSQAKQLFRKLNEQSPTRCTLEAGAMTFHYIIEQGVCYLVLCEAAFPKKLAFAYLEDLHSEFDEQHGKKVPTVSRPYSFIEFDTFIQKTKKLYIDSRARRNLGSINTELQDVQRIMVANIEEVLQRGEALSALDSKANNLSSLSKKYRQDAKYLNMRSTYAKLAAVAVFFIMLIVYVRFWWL
# No constants are given. Whether binding was seen depends on the method and setting. In cells and extracts the contact can be indirect. A yes stands for co-enrichment or nearness to the bait. Other partners may have been found.
# Biological target: increased sodium tolerance 1 (IST1) (human (endogenous in moDCs)) (UniProt P53990)
# Assay: affinity purification with mass spectrometry; endogenous IST1 immunoprecipitated from lysates of moDCs cultured overnight with or without 10% FBS (rabbit anti-IST1, protein A/G magnetic beads, 4°C; lysis buffer 200 mM NaCl, 75 mM Tris-HCl, 15 mM NaF, 7.5 mM EDTA, 7.5 mM EGTA, 0.15% Tween20); eluted with 0.2 M glycine pH 2-3; four donors; compared with beads only
row,Substance,binding
1,tapasin (from UniProt O15533 21-448),binds
2,calcineurin-binding protein cabin-1 (from UniProt Q9Y6J0 1-2220),binds
3,myosin-9 (from UniProt P35579 1-1960),binds
4,Sec22b (from UniProt O75396 1-215),binds
